Assay results taken from the M2OR odorant receptor database.
The entries are a selection whose mix differs from that of the whole data set. Calls are pooled over several reports, among them a noisy single-well screen.

Assays:
Settings in all cases: stereoisomer not certain
[1] = target: T1, OR2K2 (Homo sapiens) (UniProt Q8NGT1)
T1 sequence (whole entry): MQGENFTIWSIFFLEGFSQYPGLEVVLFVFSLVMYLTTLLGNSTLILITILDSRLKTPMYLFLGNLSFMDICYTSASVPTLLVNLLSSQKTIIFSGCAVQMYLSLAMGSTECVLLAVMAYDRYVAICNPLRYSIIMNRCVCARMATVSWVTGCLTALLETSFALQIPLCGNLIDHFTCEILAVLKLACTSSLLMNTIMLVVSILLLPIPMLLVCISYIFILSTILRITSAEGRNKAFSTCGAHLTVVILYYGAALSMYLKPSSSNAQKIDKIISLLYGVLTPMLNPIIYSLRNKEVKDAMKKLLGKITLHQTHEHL
Summary of the method: (§1)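 Transient luciferase assays in mammalian cell lines were common, though methods varied by source. The values come from published papers and their supplementary material, with extra details from the original authors when needed. Responsive refers to a measured signal the original authors judged statistically different from baseline, and non-responsive (inactive) to the remainder.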

[2] = target: T2, OR2L13 (Homo sapiens) (UniProt Q8N349)
T2 sequence (whole entry): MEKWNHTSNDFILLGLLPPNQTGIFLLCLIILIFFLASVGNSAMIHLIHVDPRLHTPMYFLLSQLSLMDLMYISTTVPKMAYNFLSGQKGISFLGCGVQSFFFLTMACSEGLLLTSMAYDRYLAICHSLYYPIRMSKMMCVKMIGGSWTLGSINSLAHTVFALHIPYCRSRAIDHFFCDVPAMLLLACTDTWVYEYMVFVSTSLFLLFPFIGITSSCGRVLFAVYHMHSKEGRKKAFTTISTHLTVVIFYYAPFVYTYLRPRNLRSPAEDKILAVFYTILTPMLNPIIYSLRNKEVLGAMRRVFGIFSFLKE
Summary of the method: as §1

[3] = target: T3, OR2L2 (Homo sapiens) (UniProt Q8NH16)
T3 sequence (whole entry): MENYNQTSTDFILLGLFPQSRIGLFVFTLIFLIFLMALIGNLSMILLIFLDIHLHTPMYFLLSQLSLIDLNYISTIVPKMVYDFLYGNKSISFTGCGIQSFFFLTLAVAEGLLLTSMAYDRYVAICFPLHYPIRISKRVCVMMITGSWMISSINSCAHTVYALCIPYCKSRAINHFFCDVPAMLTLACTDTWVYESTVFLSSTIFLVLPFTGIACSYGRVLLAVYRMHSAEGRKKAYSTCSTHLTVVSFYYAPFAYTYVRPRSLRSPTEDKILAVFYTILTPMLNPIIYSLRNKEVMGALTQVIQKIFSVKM
Summary of the method: as §1
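Further: active if original authors judged signal statistically different from baseline.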

CCC1(O)C2(C)CCC(C2)C1(C)C (stereo unspecified)
odorant receptor agonist call [1]: inactive | odorant receptor agonist call [2]: inactive | odorant receptor agonist call [3]: inactive

CCCCCC(C)=O
odorant receptor agonist call [1]: inactive | odorant receptor agonist call [2]: inactive | odorant receptor agonist call [3]: inactive

CC(C)C(=O)O
odorant receptor agonist call [1]: inactive | odorant receptor agonist call [2]: inactive | odorant receptor agonist call [3]: inactive

C=CCc1ccc(OC(C)=O)c(OC)c1
odorant receptor agonist call [1]: inactive | odorant receptor agonist call [2]: inactive | odorant receptor agonist call [3]: inactive

c1cnccn1
odorant receptor agonist call [1]: inactive | odorant receptor agonist call [2]: inactive | odorant receptor agonist call [3]: inactive

C=C(C)C1CC=C(C)C(=O)C1 (stereo unspecified)
odorant receptor agonist call [2]: inactive

CCCCCCCC=O
odorant receptor agonist call [1]: inactive | odorant receptor agonist call [2]: inactive | odorant receptor agonist call [3]: inactive

CC1COCc2cc3c(cc21)C(C)(C)C(C)C3(C)C (stereo unspecified)
odorant receptor agonist call [1]: active | odorant receptor agonist call [2]: active | odorant receptor agonist call [3]: active

CC(=O)OC(C)(C)C1CC=C(C)CC1 (stereo unspecified)
odorant receptor agonist call [1]: inactive | odorant receptor agonist call [2]: inactive | odorant receptor agonist call [3]: inactive

CC12C=CCC1C1CCC3=CC(=O)CCC3(C)C1CC2 (stereo unspecified)
odorant receptor agonist call [1]: inactive | odorant receptor agonist call [2]: inactive | odorant receptor agonist call [3]: inactive

CCCCCC(=O)O
odorant receptor agonist call [1]: inactive | odorant receptor agonist call [3]: inactive

CCCCCCCCCCC=O
odorant receptor agonist call [1]: inactive | odorant receptor agonist call [3]: inactive

COc1ccccc1O
odorant receptor agonist call [1]: inactive | odorant receptor agonist call [2]: inactive | odorant receptor agonist call [3]: inactive

CC12C=CCC1C1CCC3CC(=O)CCC3(C)C1CC2 (stereo unspecified)
odorant receptor agonist call [1]: inactive | odorant receptor agonist call [2]: inactive | odorant receptor agonist call [3]: inactive

CC(C)(O)CCCC1=CCC(C=O)CC1 (stereo unspecified)
odorant receptor agonist call [2]: inactive

CC(C)(C)c1ccc(CCC=O)cc1
odorant receptor agonist call [1]: inactive | odorant receptor agonist call [2]: inactive | odorant receptor agonist call [3]: inactive

C=CCc1ccc(O)c(OC)c1
odorant receptor agonist call [2]: inactive

c1ccc(Oc2ccccc2)cc1
odorant receptor agonist call [1]: inactive | odorant receptor agonist call [2]: inactive | odorant receptor agonist call [3]: inactive

CC(C)CC(=O)O
odorant receptor agonist call [1]: inactive | odorant receptor agonist call [2]: inactive | odorant receptor agonist call [3]: inactive

CC1=CCC(C(C)(C)O)CC1 (stereo unspecified)
odorant receptor agonist call [1]: inactive | odorant receptor agonist call [2]: inactive | odorant receptor agonist call [3]: inactive

CC(=O)C(C)=O
odorant receptor agonist call [1]: inactive | odorant receptor agonist call [2]: inactive | odorant receptor agonist call [3]: inactive

CC1=NC(C)SC1C (stereo unspecified)
odorant receptor agonist call [1]: inactive | odorant receptor agonist call [2]: inactive | odorant receptor agonist call [3]: inactive

CCCCCCCCC=O
odorant receptor agonist call [2]: inactive

CCCCCCCCOC(C)=O
odorant receptor agonist call [1]: inactive | odorant receptor agonist call [2]: inactive | odorant receptor agonist call [3]: inactive

COc1cc(C=O)ccc1O
odorant receptor agonist call [1]: inactive | odorant receptor agonist call [2]: inactive | odorant receptor agonist call [3]: inactive

CC(=O)OC1CC2CCC1(C)C2(C)C (stereo unspecified)
odorant receptor agonist call [1]: inactive | odorant receptor agonist call [2]: inactive | odorant receptor agonist call [3]: inactive

C=CC(C)(O)CCC=C(C)C (stereo unspecified)
odorant receptor agonist call [1]: inactive | odorant receptor agonist call [2]: inactive | odorant receptor agonist call [3]: inactive

CC12CCC(C1)C(C)(C)C2=O (stereo unspecified)
odorant receptor agonist call [1]: inactive | odorant receptor agonist call [2]: inactive | odorant receptor agonist call [3]: inactive

CCCCCCOC(=O)CCC
odorant receptor agonist call [1]: inactive | odorant receptor agonist call [2]: inactive | odorant receptor agonist call [3]: inactive

CCCC(=O)O
odorant receptor agonist call [1]: inactive | odorant receptor agonist call [2]: inactive | odorant receptor agonist call [3]: active

CCCCCCCOC(C)=O
odorant receptor agonist call [1]: inactive | odorant receptor agonist call [2]: inactive | odorant receptor agonist call [3]: inactive

CC(C)C=O
odorant receptor agonist call [1]: inactive | odorant receptor agonist call [2]: inactive | odorant receptor agonist call [3]: inactive
